# Earlier results as cited in patent US20170027973A1, “MODULARION OF INVARIANT NATURAL KILLER T CELLS IN THE TREATMENT OF SEPSIS” (LONDON HEALTH SCIENCES CENTRE RESEARCH INC., priority 2014, published 2017).
# Some entries share one result that the patent states for a list of compounds. For at least one compound, name, drawing or mass did not settle the structure.
# System: surface TCR of iNKT cells
# Settings: cited from earlier work
row,Compound,time of down-regulation of the surface TCR post administration [h]
1,CCCCCCCCCCCCCCCCCCCCCCCC(=O)N[C@@H](COC1OC(CO)C(O)C(O)C1O)[C@H](O)[C@H](O)CCCCC (some centres unmarked) [OCH],4 to 12
2,"CCCCCCCCCCCCCCCCCCCCCCCCCC(=O)N[C@@H](CO[C@H]1O[C@H](CO)[C@H](O)[C@H](O)[C@H]1O)[C@H](O)[C@H](O)CCCCCCCCCCCCCC [KRN7000, reference compound]",4 to 12
